According to the supplement of paper PMC10849652:
The other results are listed elsewhere or left out.

Protein sequences, listed by entry. Tags and fused reporters are not part of them. Lines headed by an entry give the natural chain unless they say otherwise; changes in a name come on top.
UniProt Q8N163, whole entry, looked up: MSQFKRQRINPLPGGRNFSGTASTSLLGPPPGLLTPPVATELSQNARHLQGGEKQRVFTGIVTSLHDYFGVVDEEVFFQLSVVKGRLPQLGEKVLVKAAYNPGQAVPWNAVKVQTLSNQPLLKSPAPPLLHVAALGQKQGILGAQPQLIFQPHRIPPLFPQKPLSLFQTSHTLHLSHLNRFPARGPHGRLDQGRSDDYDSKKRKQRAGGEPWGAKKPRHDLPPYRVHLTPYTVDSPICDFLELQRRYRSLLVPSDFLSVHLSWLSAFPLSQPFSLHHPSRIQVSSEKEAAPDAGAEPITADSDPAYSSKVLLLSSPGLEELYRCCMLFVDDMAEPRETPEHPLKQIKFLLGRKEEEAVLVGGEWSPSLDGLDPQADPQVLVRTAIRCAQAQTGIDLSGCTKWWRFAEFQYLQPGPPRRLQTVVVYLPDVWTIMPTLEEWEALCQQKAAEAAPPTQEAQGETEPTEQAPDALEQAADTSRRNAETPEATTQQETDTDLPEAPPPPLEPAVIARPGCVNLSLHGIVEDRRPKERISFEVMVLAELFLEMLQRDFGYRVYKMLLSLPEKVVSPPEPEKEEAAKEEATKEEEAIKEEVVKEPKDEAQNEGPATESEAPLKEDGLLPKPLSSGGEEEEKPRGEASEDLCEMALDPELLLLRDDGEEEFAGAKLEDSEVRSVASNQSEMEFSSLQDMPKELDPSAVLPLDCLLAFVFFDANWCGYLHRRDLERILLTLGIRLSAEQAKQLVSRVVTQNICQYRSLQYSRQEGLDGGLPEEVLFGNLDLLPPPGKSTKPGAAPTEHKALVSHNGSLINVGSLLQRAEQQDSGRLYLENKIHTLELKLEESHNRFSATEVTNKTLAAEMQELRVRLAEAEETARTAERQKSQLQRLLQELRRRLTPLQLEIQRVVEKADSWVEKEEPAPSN
UniProt Q8IX12: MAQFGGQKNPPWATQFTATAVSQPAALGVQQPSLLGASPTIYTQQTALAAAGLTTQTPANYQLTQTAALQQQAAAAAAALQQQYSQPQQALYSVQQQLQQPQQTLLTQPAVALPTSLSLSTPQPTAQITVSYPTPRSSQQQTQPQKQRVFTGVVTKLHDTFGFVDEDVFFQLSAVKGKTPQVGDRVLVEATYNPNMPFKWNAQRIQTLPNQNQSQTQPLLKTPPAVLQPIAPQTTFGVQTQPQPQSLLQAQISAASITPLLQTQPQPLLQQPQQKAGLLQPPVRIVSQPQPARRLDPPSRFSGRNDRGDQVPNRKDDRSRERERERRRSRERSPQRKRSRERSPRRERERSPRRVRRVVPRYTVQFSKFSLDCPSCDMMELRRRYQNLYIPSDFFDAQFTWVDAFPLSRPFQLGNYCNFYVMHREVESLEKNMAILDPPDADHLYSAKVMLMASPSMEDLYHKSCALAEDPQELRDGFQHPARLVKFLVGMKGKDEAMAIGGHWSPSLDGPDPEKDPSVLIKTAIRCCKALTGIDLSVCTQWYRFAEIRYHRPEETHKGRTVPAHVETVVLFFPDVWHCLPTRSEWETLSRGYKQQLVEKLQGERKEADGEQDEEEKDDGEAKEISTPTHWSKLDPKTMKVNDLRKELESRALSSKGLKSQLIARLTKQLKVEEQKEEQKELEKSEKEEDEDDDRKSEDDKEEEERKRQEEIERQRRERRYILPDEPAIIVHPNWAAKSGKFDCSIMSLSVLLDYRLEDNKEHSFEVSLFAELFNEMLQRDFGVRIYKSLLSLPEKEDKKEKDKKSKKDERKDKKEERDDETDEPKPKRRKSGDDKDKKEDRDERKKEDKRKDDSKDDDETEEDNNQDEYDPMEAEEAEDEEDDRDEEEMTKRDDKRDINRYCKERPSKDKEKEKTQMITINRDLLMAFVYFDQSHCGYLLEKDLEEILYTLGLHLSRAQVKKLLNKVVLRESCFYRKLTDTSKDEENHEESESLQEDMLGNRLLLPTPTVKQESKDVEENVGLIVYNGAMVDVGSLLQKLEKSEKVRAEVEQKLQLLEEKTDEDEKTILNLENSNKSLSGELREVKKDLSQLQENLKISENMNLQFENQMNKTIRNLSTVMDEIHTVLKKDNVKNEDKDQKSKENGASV
UniProt O95400: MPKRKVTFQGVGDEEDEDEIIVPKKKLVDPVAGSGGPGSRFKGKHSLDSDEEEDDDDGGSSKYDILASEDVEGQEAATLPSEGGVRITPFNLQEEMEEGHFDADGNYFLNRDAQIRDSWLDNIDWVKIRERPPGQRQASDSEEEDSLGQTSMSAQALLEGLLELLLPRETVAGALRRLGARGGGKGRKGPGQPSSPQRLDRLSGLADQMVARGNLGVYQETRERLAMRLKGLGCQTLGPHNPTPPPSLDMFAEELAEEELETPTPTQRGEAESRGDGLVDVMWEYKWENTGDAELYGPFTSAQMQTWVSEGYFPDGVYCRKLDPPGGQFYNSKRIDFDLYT
UniProt P49368: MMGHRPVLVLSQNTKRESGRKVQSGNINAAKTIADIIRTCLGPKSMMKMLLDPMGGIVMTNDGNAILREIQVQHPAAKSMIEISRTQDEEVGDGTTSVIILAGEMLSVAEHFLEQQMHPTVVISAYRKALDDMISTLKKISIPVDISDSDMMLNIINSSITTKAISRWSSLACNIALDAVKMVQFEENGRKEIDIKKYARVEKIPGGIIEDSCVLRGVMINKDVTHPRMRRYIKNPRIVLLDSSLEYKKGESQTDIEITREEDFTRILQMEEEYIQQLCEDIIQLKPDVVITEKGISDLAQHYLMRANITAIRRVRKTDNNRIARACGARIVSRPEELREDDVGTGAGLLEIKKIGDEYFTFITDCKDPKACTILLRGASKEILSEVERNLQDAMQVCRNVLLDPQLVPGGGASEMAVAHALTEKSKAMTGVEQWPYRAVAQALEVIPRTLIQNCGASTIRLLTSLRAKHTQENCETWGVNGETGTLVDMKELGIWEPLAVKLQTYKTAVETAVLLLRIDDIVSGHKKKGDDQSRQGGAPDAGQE
UniProt Q9HA77: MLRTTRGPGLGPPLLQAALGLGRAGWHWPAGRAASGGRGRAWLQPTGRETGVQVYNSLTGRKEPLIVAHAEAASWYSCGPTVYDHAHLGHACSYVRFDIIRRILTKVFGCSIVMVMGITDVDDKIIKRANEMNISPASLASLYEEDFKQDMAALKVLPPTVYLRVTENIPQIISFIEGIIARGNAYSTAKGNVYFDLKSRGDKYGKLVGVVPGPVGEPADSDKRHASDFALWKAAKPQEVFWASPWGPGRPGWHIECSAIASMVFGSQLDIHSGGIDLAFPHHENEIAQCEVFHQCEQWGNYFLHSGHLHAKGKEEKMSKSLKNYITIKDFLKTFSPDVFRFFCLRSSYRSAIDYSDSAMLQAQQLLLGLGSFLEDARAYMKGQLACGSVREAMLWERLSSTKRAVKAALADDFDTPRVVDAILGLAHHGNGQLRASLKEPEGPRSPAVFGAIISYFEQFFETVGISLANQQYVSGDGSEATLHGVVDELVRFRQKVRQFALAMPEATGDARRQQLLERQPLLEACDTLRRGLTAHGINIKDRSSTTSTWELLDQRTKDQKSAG
UniProt Q16204: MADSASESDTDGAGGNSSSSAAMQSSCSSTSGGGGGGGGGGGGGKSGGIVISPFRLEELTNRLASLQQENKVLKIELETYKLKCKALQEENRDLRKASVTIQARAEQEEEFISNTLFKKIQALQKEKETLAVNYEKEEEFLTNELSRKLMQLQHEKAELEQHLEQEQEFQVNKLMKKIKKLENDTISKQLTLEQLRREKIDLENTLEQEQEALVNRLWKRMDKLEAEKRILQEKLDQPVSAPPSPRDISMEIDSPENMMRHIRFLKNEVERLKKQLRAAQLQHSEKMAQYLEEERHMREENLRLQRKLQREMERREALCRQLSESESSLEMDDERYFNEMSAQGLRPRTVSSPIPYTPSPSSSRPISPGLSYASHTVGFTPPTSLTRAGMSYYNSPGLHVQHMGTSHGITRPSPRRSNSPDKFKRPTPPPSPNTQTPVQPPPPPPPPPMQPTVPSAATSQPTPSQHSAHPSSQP
UniProt O75081: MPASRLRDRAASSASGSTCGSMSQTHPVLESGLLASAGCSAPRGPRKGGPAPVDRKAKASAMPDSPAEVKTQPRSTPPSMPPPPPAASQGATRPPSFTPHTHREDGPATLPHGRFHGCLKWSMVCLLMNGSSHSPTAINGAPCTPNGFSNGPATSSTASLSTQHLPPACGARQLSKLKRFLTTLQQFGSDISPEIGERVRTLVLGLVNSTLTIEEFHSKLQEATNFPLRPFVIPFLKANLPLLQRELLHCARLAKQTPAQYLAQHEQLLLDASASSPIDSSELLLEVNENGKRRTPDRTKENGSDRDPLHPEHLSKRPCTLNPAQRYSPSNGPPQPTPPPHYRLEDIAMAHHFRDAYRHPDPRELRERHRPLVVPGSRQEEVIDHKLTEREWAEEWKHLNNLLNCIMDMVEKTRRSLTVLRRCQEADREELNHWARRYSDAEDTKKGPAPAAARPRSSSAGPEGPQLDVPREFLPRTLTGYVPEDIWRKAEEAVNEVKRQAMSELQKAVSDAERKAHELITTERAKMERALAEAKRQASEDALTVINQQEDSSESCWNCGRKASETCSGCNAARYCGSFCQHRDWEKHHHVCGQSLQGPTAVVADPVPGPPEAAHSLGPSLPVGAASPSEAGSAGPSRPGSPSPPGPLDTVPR
UniProt Q4VC31: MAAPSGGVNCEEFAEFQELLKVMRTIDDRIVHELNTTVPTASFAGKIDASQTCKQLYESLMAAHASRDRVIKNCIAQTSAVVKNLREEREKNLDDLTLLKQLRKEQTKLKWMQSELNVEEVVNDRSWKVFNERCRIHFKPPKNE
UniProt Q9P031: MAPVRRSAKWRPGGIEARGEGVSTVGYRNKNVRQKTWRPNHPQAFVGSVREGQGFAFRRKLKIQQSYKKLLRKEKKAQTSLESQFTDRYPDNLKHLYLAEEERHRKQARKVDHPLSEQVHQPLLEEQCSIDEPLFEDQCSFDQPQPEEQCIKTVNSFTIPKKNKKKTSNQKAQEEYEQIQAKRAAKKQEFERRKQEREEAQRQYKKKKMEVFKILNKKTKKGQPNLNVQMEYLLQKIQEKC
UniProt Q6PK04: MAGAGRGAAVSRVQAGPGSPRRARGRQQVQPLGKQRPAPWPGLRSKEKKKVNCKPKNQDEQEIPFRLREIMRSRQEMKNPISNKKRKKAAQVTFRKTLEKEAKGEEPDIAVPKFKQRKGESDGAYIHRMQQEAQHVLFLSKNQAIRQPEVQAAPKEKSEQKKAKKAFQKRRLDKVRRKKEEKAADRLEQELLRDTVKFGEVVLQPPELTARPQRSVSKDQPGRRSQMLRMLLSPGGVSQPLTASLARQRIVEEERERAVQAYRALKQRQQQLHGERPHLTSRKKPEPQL
UniProt P13987: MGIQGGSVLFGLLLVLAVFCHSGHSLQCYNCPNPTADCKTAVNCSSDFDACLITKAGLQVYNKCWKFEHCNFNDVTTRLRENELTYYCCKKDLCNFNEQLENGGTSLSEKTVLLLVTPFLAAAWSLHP
UniProt P48509: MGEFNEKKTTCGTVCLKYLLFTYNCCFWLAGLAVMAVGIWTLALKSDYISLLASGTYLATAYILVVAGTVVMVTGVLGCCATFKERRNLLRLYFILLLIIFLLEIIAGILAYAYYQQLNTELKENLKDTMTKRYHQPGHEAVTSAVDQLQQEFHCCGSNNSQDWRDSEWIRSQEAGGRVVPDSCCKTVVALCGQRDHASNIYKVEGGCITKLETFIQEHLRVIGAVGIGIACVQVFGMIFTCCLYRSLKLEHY
UniProt Q8N4J0: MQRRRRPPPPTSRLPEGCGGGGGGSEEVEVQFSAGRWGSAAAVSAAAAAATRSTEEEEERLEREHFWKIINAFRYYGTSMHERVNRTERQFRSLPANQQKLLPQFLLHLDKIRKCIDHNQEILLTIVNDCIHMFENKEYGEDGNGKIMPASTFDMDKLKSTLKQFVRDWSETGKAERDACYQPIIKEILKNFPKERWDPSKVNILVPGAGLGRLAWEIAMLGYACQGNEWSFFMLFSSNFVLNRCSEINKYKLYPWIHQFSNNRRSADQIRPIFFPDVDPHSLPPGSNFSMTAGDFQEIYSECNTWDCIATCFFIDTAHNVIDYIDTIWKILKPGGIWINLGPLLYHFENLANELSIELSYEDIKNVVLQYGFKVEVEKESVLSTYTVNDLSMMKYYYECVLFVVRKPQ
UniProt Q5RIA9: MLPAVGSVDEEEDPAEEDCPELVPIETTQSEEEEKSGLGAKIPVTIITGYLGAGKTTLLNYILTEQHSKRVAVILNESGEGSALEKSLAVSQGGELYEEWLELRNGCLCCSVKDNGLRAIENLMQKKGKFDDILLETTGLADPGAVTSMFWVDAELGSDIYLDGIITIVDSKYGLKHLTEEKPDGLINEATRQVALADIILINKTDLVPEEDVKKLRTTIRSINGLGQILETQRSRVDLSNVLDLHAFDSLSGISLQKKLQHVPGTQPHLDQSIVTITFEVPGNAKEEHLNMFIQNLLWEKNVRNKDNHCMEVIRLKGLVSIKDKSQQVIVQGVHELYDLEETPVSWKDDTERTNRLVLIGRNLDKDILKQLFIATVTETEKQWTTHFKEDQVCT

Tests used:
Experiment in all cases: log2 fold change, soluble protein after heating vs DMSO (PISA); higher = thermal stabilisation; K562 lysate, 10 uM; active = over 0.2 and 3.5 SD of the protein, either way, in both replicates (recomputed)
[1] = compound: C1=CC=C(C=C1)[C@H](COC2=CC3=C(C=C2)NC(=O)N3)NC(=O)C4=CC=CN(C4=O)CC5=CC(=C(C=C5)F)F
Procedure, shortened: (§1)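 K562 pellets were dounce-homogenised in PBS pH 7.4 with 1 mM MgCl2, and the crude extract at 1 mg/mL protein was treated with 10 μM compound for 30 min. Aliquots were heated for 3 min across 48°C-58°C, pooled, and brought to 0.5% NP-40 at 4°C; soluble protein was the supernatant after 21,000xg for 90 min. Soluble protein was quantified by TMTpro 16plex LC-MS/MS with channel sums equalised, and reported as log2 fold change in thermal stability against DMSO controls, with values from duplicates.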

[2] = compound: CC1=C(SC2=C1C(=N[C@H](C3=NN=C(N32)C)CC(=O)N)C4=CC=C(C=C4)Cl)C
Procedure, shortened: as §1

[3] = compound: CC1=C2C(=CC=C1)N=C(N(C2=O)C3=CC=CC=C3C)CN4C=NC5=C(N=CN=C54)N
Procedure, shortened: as §1

[4] = compound: Cc1sc2c(c1C)C(c1ccc(Cl)cc1)=N[C@@H](CC(=O)OC(C)(C)C)c1nnc(C)n1-2
Procedure, shortened: as §1

[5] = compound: c1ccc([C@@H]2C[C@H]2NC2CCNCC2)cc1
Procedure, shortened: as §1

Measured: log2 fold change

CASP10 isoform 4 (UniProt Q92851)
inactive: [1] 0.001 | [2] -0.018 | [3] -0.004 | [4] -0.015 | [5] 0.01

CCAR2 (UniProt Q8N163)
inactive: [1] 0.001 | [2] 0.005 | [3] -0.007 | [4] 0.003 | [5] 0.004

CCT7 (UniProt Q99832)
inactive: [1] -0.012 | [2] -0.012 | [3] -0.022 | [4] 0.014 | [5] 0.019

CCAR1 (UniProt Q8IX12)
inactive: [1] 0.028 | [2] 0.018 | [3] 0.001 | [4] 0.044 | [5] -0.027

CCDC97 (UniProt Q96F63)
inactive: [1] -0.019 | [2] 0.013 | [3] -0.044 | [4] 0.008 | [5] 0.058

CD2BP2 (UniProt O95400)
inactive: [1] 0.038 | [2] 0.037 | [3] -0.015 | [4] -0.007 | [5] 0.079

CCT3 (UniProt P49368)
inactive: [1] 0.001 | [2] -0.001 | [3] -0.008 | [4] 0.016 | [5] 0.028

CARS2 (UniProt Q9HA77)
inactive: [1] 0.064 | [2] 0.099 | [3] 0.011 | [4] 0.026 | [5] 0.02

CARM1 (UniProt Q86X55)
inactive: [1] 0.012 | [2] 0.02 | [3] 0.002 | [4] -0.016 | [5] -0.004

CCDC6 (UniProt Q16204)
inactive: [1] 0.017 | [2] 0.005 | [3] 0.003 | [4] -0.01 | [5] -0.027

CBFA2T3 (UniProt O75081)
inactive: [1] -0.029 | [2] -0.01 | [3] 0.058 | [4] 0.009 | [5] 0.019

CCDC58 (UniProt Q4VC31)
inactive: [1] 0.062 | [2] -0.019 | [3] -0.049 | [4] 0.049 | [5] 0.06

CCNB1 (UniProt P14635)
inactive: [1] -0.019 | [2] 0.063 | [3] 0.038 | [4] -0.032 | [5] 0.036

CAST isoform 6 (UniProt P20810)
inactive: [1] 0.012 | [2] -0.011 | [3] -0.023 | [4] -0.041 | [5] -0.048

CCDC59 (UniProt Q9P031)
inactive: [1] 0.032 | [2] 0.033 | [3] -0.004 | [4] -0.03 | [5] -0.069

CCDC137 (UniProt Q6PK04)
inactive: [1] 0.018 | [2] 0.005 | [3] -0.01 | [4] 0.081 | [5] -0.086

CD59 isoform 2 (UniProt P13987)
inactive: [1] -0.026 | [2] 0.032 | [3] 0.017 | [4] -0.028 | [5] -0.001

CCNK isoform 4 (UniProt O75909)
inactive: [1] -0.018 | [2] -0.045 | [3] -0.026 | [4] -0.047 | [5] -0.175

CCDC32 isoform 2 (UniProt Q9BV29)
inactive: [1] -0.132 | [2] -0.103 | [3] -0.058 | [4] 0.015 | [5] -0.109

CD151 (UniProt P48509)
inactive: [1] -0.027 | [2] -0.012 | [3] -0.023 | [4] 0.031 | [5] -0.155

CARNMT1 (UniProt Q8N4J0)
inactive: [1] 0.032 | [2] -0.003 | [3] 0.072 | [4] -0.039 | [5] -0.174

CD58 (UniProt P19256)
inactive: [1] -0.02 | [2] 0.024 | [3] -0.005 | [4] -0.038 | [5] -0.09

CBWD5 (UniProt Q5RIA9)
inactive: [1] -0.079 | [2] 0.065 | [3] 0.052 | [4] -0.04 | [5] 0.039

CCT2 (UniProt P78371)
inactive: [1] -0.013 | [2] 0.005 | [3] -0.014 | [4] 0.019 | [5] 0.019
